# Measured values published in article PMC6925144, “A prospective compound screening contest identified broader inhibitors for Sirtuin 1” (Scientific Reports, 2019).
# Protein sequences, listed by entry. Tags and fused reporters are not part of them. Residues count along the entry.
# UniProt Q96EB6, 2-747 limits assumed: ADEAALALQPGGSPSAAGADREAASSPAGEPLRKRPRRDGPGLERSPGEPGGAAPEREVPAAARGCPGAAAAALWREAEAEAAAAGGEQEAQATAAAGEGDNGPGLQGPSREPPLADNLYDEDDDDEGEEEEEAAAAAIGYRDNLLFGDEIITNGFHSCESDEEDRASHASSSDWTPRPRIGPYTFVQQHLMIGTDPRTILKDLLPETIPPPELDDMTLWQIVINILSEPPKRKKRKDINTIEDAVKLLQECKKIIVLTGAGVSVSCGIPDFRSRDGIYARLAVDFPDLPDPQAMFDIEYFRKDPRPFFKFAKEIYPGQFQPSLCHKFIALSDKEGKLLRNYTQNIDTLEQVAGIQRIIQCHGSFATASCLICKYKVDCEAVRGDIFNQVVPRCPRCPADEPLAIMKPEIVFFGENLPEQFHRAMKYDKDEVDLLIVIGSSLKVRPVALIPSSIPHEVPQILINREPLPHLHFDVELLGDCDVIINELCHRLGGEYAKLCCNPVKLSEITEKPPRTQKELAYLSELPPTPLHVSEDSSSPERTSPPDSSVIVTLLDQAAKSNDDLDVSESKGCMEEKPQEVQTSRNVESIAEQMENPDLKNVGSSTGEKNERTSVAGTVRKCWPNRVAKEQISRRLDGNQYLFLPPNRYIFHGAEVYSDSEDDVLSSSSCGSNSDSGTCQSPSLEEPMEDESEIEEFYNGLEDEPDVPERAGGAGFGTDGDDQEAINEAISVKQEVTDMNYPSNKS
# The full ranking holds about 3,200 compounds; the median of “TSA(without NAD+) / Primary screening (TSA) / delta Tm (K)” is about -0.07, and the highest 2% start at about 0.37. The list shows a part of the results.
# Molecular target: NAD-dependent deacetylase Sirtuin 1 (human, UniProt Q96EB6)
# Experiment: primary screen, delta tm
# Parameters: single well (n = 1)
# Details: 10 µM
# Procedure, shortened: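 Thermal shift of Sirtuin 1 measured without NAD+, compound at 10 µM (n = 1); value is ΔTm, with hits defined as ΔTm > 0.45 K or < −1.5 K. Hits retested at 5, 10, 20 µM (n = 4) and counterscreened on bovine carbonic anhydrase and ABL1 SH2 domain.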
row,SMILES,TSA(without NAD+) / Primary screening (TSA) / delta Tm (K)
1,NC(=O)c1ccc(CN2CCN(CCO)CC2)cc1,-0.12
2,CN(Cc1ccc(N(C)C)cc1)C(=O)c1cnc2ccccn2c1=O,-0.13
3,CC(C)(C)N(Cc1ccccc1)C(=O)Cn1nnc2ccccc2c1=O,-0.13
4,O=C(Nc1ccccc1Oc1ccccc1)c1ccccc1[N+](=O)[O-],-0.18
5,CCc1ccccc1NC(=O)CNC(=O)CCc1nc2ccccc2[nH]1,-0.12
6,CCC(C)c1ccccc1NC(=O)Cc1coc2ccc3ccccc3c12 (stereo not shown),-0.13
7,Cc1n[nH]c(=O)c2c(NC(=O)CN3CCC(O)CC3)oc(C)c12,-0.03
8,Nc1nc(-c2c(-c3ccccc3)[nH]c3ccccc23)cs1,0.09
9,COc1ccc2cccc(C=C3C(=O)NC(=S)NC3=O)c2c1,-0.22
10,CC(CC1CCCCCN1C(=O)OC(C)(C)C)NCc1cccc(C(N)=O)c1 (stereo not shown),-0.13
11,Cc1c(NC=C2C(=O)NC(=S)NC2=O)c(=O)n(-c2ccccc2)n1C,0.07
12,Cc1ccc(C(=O)Nc2cccc(/C=c3/s/c(=C(\C#N)C(=O)NCc4ccco4)n(-c4c(C)cccc4C)c3=O)c2)cc1,0.15
13,CN(Cc1cccc2ccccc12)c1cc(=O)n2ccccc2n1,-0.43
14,Cc1ccc(Nc2nnc(SCC(=O)NC(=O)NCc3ccco3)s2)cc1,0.07
15,O=c1c2ccncc2ncn1CC(O)c1cccc(Cl)c1 (stereo not shown),-0.14
16,O=C(NCCc1coc(-c2ccccc2)n1)c1cc(-c2ccco2)on1,0.19
17,CC1CCCC(NC(=O)COC(=O)CCCOc2ccccc2)C1C (stereo not shown),-0.14
18,Cc1[nH]c2ccccc2c1C(=O)CN1CCC(C(N)=O)CC1,0.07
19,N=C(N)NCCN,-0.04
20,Cc1cc(C(=O)COC(=O)c2ccc(-c3ccc(O)cc3)cc2)c(C)n1C,-0.22
21,Oc1ccc2ccccc2c1/C=N/c1c(F)c(F)c(F)c(F)c1F,-0.13
22,O=C(CC12CC3CC(CC(C3)C1)C2)NCC(=O)Nc1ccc(Sc2nc3ccccc3[nH]2)cc1,0.18
23,COc1cccc(NN=C2C(=O)NC(=S)NC2=O)c1,-0.15

row,SMILES,TSA(without NAD+) / Primary screening (TSA) / delta Tm (K)
1,NC(=O)C1CCCCC1Nc1ncnc2cc(F)c(F)cc12 (stereo not shown),0.06
2,O=C(O)C(=O)Nc1ccccc1,0.02
3,CC1CCc2[nH]c3ccc(C(=O)N(C)C)cc3c2C1 (stereo not shown),-0.17
4,Cc1nc(C)c(C(=O)C2=C(O)C(=O)N(CCN3CCOCC3)C2c2ccco2)s1 (stereo not shown),-0.08
5,CC1Cc2ccccc2N1c1ncnc2ccsc12 (stereo not shown),0.07
6,CN(c1ccccc1)S(=O)(=O)c1cccc(NC(=O)c2cccc(C#N)c2)c1,0.13
7,O=C(CNC1=NS(=O)(=O)c2ccccc21)Nc1ccc(N2CCN(Cc3ccccc3)CC2)cc1,-0.05
8,CCCc1ccc(C(Nc2ccc3nnnn3n2)C(C)C)cc1 (stereo not shown),-0.05
9,CC1CC1C(=O)NCc1ccccc1-c1ccc(CN2CCCC2)cc1 (stereo not shown),0.02
10,O=C(C1=C(O)C(=O)N(CCCN2CCOCC2)C1c1cccs1)c1cc2ccccc2o1 (stereo not shown),0.12
11,O=C(CC(c1ccccc1)c1ccccc1)N1CCN(c2ccc([N+](=O)[O-])c3cnccc23)CC1,-0.02
12,O=C1COc2cc(C(=O)Nc3ccc4c(c3)-c3ccccc3C4)ccc2N1,0.07
13,COc1ccc(Cl)cc1NC(=O)CSc1nnc(-c2ccc(Cl)cc2)n1N,-0.15
14,CC(C)C(CNC(=O)COc1ccc(C(N)=O)cc1)N1CCc2ccccc2C1 (stereo not shown),0.02
15,CCCNC(=O)C(C#N)C(=O)c1cc2ccc(C)cc2nc1C (stereo not shown),-0.22
16,C=CCOc1ccc(C(=O)C2=C(O)C(=O)N(CCN3CCOCC3)C2c2ccc(OCC)cc2)cc1 (stereo not shown),0.07
17,C=CC(N)CO (stereo not shown),-0.28
18,CC(=O)N1Cc2ccccc2CC1C(=O)NC1CCOc2ccccc21 (stereo not shown),-0.13
19,CC(C)(C)C(=O)Nc1cccc(NC2CCCCNC2=O)c1 (stereo not shown),-0.11
20,COc1ccc(C2C(C(=O)c3cccs3)=C(O)C(=O)N2CCCN2CCOCC2)cc1OC (stereo not shown),-0.33
21,COc1cccc(C(=O)C2=C(O)C(=O)N(CCCN3CCOCC3)C2c2cccc(F)c2)c1 (stereo not shown),-0.17
22,CC1CCCN(C(=O)CSc2nncn2-c2ccccc2)C1 (stereo not shown),-0.07
23,Cc1cc(C)n(-c2nc(C)nc3c2cnn3-c2ccccc2)n1,-0.07

# Gathered by group: the compounds so far containing a tert-butyl group (3)
row,SMILES,TSA(without NAD+) / Primary screening (TSA) / delta Tm (K)
3,CC(C)(C)N(Cc1ccccc1)C(=O)Cn1nnc2ccccc2c1=O,-0.13
10,CC(CC1CCCCCN1C(=O)OC(C)(C)C)NCc1cccc(C(N)=O)c1 (stereo not shown),-0.13
19,CC(C)(C)C(=O)Nc1cccc(NC2CCCCNC2=O)c1 (stereo not shown),-0.11
